Experimental data from PubChem BioAssay AID540256 (National Center for Advancing Translational Sciences (NCATS), 2011).
Out of some 300,000 compounds screened, about 3,700 (1.2%) were called active. Inconclusive results, whose numbers are uncertain, are shown with a selection of clear calls. Calls follow the shape of the full dose curve; tested in HEK293 cells. Potencies beside an inconclusive call are fits to weak or partial responses and may not hold up.

Experiment: qHTS for Inhibitors of binding or entry into cells for Lassa Virus; also: nearly all actives have a fitted effect of over 50% in size
Conditions: Lassa virus pseudotype entry inhibition, cell reporter; activity change, negative = inhibition: at 37.9 µM (top of the series) unless noted
% is scaled to controls: 0 for no effect and ±100 for the full control effect; potency is read from the fitted curve at half-maximal effect.

Row | SMILES | Potency | activity change, negative = inhibition
1 | O=C(/C=C/c1ccc([N+](=O)[O-])cc1)N1CCN(c2ccccc2F)CC1 | inconclusive: 22.4 µM [activator, single point] | –
2 | CCOc1ccc(C(C(=O)NCC2CCCO2)N(CCc2cccc(C)c2)C(=O)c2snc(C(N)=O)c2N)cc1 (configuration not stated) | inconclusive: 11.2 µM [inhibitor, partial curve, poor fit] | –
3 | O=Nc1c(O)n(Cc2cccc(C(F)(F)F)c2)c2ccccc12 | inconclusive: 35.5 µM [inhibitor, single point] | –
4 | Cc1ccc(S(=O)(=O)Nc2c(C)n(C)n(-c3ccccc3)c2=O)cc1C(=O)NCc1ccco1 | inconclusive: 0.562 µM [activator, full curve] | –
5 | Fc1ccccc1OCc1nc(-c2ccc(-n3cccc3)cc2)no1 | – | inactive: 24.6% [at 46.1 µM]
6 | COC(=O)[C@@H]1C[C@]2(OC(=O)c3ccccc3)C=CC(=O)C[C@@H]2N1C(=O)OCc1ccccc1 | active: 7.31 µM | –
7 | O=C(CSc1nc2ccccc2c(=O)[nH]1)c1cccs1 | – | inactive: 15.1%
8 | O=C(Nc1ccccc1Cl)C1CCN(c2nc3ccccc3[nH]2)CC1 | – | inactive: -6.9% [at 46.1 µM]
9 | CN(Cc1ccc(F)cc1)S(=O)(=O)c1nnc(NC(=O)c2ccc(F)cc2)s1 | – | inactive: 7.42% [at 46.1 µM]
10 | CCNC(=S)N1CCc2ccccc2C1 | – | inactive: 1.8%
11 | Cc1cc(Cl)ccc1Nc1ncnc2onc(C)c12 | – | inactive: 4.18% [at 46.1 µM]
12 | Cc1ccc(Cl)cc1N1CCN(C(=O)c2cc(S(=O)(=O)N3CCCCCC3)cn2C)CC1 | – | inactive: -29.7% [at 46.1 µM]
13 | Cc1cc(C(=O)COC(=O)c2ccc(O)cc2O)c(C)n1-c1ccccc1 | active: 11.2 µM | –
14 | CC(C)(C)NC(=O)C(OC(=O)c1cccs1)c1ccc(C#N)cc1 (configuration not stated) | inconclusive: 10 µM [inhibitor, partial curve, poor fit] | –
15 | COc1cc(CNc2ccc3c(c2)ncn3C(C)C)cc(OC)c1OC | – | inactive: -3.05% [at 46.1 µM]
16 | O=C(c1ccccc1)N1CCOC12CCN(c1ncc(C(F)(F)F)cc1Cl)CC2 | inconclusive: 10 µM [inhibitor, partial curve] | –
17 | O=C(CN(CCc1ccccc1)S(=O)(=O)c1ccccc1)NCc1ccc(Cl)cc1 | inconclusive: 35.5 µM [inhibitor, single point] | –
18 | CC1CCCCN1c1nc(-c2ccncc2)nc2ccccc12 (configuration not stated) | – | inactive: -10.4%
19 | C=CC[n+]1c(C)csc1Nc1cccc(Br)c1 | – | inactive: 3.52% [at 46.1 µM]
20 | Cc1ccc2[nH]c3c(=O)n(CCN4CCNCC4)cnc3c2c1 | inconclusive: 7.3 µM [activator, partial curve, poor fit] | –
21 | COc1ccc(/C=C2\SC(=S)N(CCC(=O)NCCCN3CCOCC3)C2=O)cc1 | – | inactive: 0.287%
22 | CCOc1ccc(S(=O)(=O)NCCC(=O)NC2CCC(C)CC2)cc1 (configuration not stated) | – | inactive: 1.03% [at 46.1 µM]
23 | Cc1ccc(C(=O)N2CCC(N3CCN(Cc4ccc(F)cc4)C(=O)C3=O)CC2)cc1 | – | inactive: 0.629% [at 46.1 µM]
24 | O=C1C(c2ccc(F)cc2)N(Cc2ccccc2Cl)C(=O)CN1C1CCCCC1 (configuration not stated) | – | inactive: -0.677% [at 46.1 µM]

Row | SMILES | Potency | activity change, negative = inhibition
25 | CCOc1ccc(-c2nn(-c3ccccc3)cc2C2NC(=O)NC(C)=C2C(=O)OC(C)C)cc1C (configuration not stated) | – | inactive: -20.3% [at 46.1 µM]
26 | COc1ccc(NC(=O)C2CCCCN2N)cc1OC (configuration not stated) | – | inactive: 28.1%
27 | CCCc1ccc(-c2csc(NC(=O)Cc3cccs3)n2)cc1 | inconclusive: 10 µM [inhibitor, partial curve, poor fit] | –
28 | COc1ccc(OC)c(S(=O)(=O)N2Cc3ccccc3CC2C(=O)Nc2ccc(Cl)cc2)c1 (configuration not stated) | inconclusive: 31.6 µM [inhibitor, partial curve, poor fit] | –
29 | CCN(CC)S(=O)(=O)c1cc(NC(=O)NCCCl)ccc1C | inconclusive: 3.55 µM [inhibitor, full curve, poor fit] | –
30 | COC(C(=O)NNC(=O)Cc1ccc(Cl)cc1)c1ccccc1 (configuration not stated) | – | inactive: -12.3%
31 | CCCC(=O)Nc1ccc(C(=O)NNC(=S)NC(=O)c2cccs2)cc1 | – | inactive: 1.74%
32 | Cc1ccc2c(c1)C(=O)C(=O)N2Cc1ccc(OC(C)C)cc1 | inconclusive: 7.08 µM [inhibitor, partial curve, poor fit] | –
33 | CCCCNC(=O)Nc1ccc(C2SCCS2)cc1 | – | inactive: -18%
34 | CC1CCc2c(nc3nc[nH]n3c2=O)C1 (configuration not stated) | – | inactive: 6.18%
35 | O=C(NCc1ccc2c(c1)OCO2)Nc1ccc2ccccc2c1 | – | inactive: 1.83%
36 | CCCOc1ccc(/C=N/NC(=O)c2ccc3c(c2)OCO3)c(OCCC)c1 | – | inactive: 0.728%
37 | CCCC(=NCCc1c(C)[nH]c2ccccc12)C1=C(O)CC(c2ccccc2)CC1=O (configuration not stated) | inconclusive: 0.794 µM [inhibitor, full curve] | –
38 | Cc1cc(/C=C2\Sc3ccccc3N2C)cc(C)[n+]1CC1CCCO1 (configuration not stated) | inconclusive: 1.58 µM [inhibitor, full curve, poor fit] | –
39 | Cc1ccc(-n2c(=O)c3c(cnn3C)n(CC(=O)Nc3c(C)cccc3C)c2=O)cc1 | – | inactive: 4.96% [at 46.1 µM]
40 | CCCCn1c(N)c(N(CC(C)C)C(=O)c2cc(-c3ccc(F)cc3)nc3ccccc23)c(=O)[nH]c1=O | inconclusive: 12.6 µM [inhibitor, partial curve, poor fit] | –
41 | CCOC(=O)C1=C(CN2CCN(c3cccc(OC)c3)CC2)NC(=O)NC1c1ccc(OC)cc1 (configuration not stated) | – | inactive: -13.5% [at 46.1 µM]
42 | CCOC(=O)C1=C(CN2CCC(C)CC2)NC(=O)NC1c1ccc(Cl)cc1 (configuration not stated) | inconclusive: 29.1 µM [inhibitor, single point] | –
43 | Cc1cc(C)n2cc(CSc3ccccn3)nc2n1 | – | inactive: -3.62% [at 46.1 µM]
44 | C=CCNC(=O)/C(=C/c1ccc(Br)cc1)NC(=O)c1ccccc1OC | inconclusive: 11.2 µM [activator, single point] | –
45 | CCOc1ccc(-c2nc(CSc3nnc(N)s3)cs2)cc1 | – | inactive: 2.15%
46 | C=CCOc1c(Cl)cc(C(=S)N2CCCC2)cc1OCC | inconclusive: 10 µM [inhibitor, partial curve] | –
47 | Cc1ccc(S(=O)(=O)N(CC(=O)N2CCN(c3ccccc3F)CC2)C2CCCCC2)cc1 | inconclusive: 6.51 µM [inhibitor, partial curve] | –
48 | Oc1c(C=Nc2ccc(Cl)cn2)sc2ccccc12 | inconclusive: 6.31 µM [inhibitor, single point] | –

5 entries out of the list, ordered by heavy-atom count, falling.
Row | SMILES | Potency | activity change, negative = inhibition
6 | COC(=O)[C@@H]1C[C@]2(OC(=O)c3ccccc3)C=CC(=O)C[C@@H]2N1C(=O)OCc1ccccc1 | active: 7.31 µM | –
12 | Cc1ccc(Cl)cc1N1CCN(C(=O)c2cc(S(=O)(=O)N3CCCCCC3)cn2C)CC1 | – | inactive: -29.7% [at 46.1 µM]
23 | Cc1ccc(C(=O)N2CCC(N3CCN(Cc4ccc(F)cc4)C(=O)C3=O)CC2)cc1 | – | inactive: 0.629% [at 46.1 µM]
27 | CCCc1ccc(-c2csc(NC(=O)Cc3cccs3)n2)cc1 | inconclusive: 10 µM [inhibitor, partial curve, poor fit] | –
45 | CCOc1ccc(-c2nc(CSc3nnc(N)s3)cs2)cc1 | – | inactive: 2.15%

(list continues)

Row | SMILES | Potency | activity change, negative = inhibition
49 | COc1cc(/C=C/c2ccc3cccc(O)c3n2)cc(Br)c1OC | – | inactive: -14%
50 | CN(NC(=O)c1cccc(Cl)c1)c1nc(-c2ccccc2)nnc1C(F)(F)F | inconclusive: 14.1 µM [inhibitor, single point] | –
51 | COc1ccc(C(=O)Nc2ccc(C)c(S(=O)(=O)N3CCCCCC3)c2)cc1 | inconclusive: 17.8 µM [inhibitor, partial curve, poor fit] | –
52 | COc1ccccc1C(CNC(=O)c1ccc(S(=O)(=O)NCc2ccco2)cc1)N(C)C (configuration not stated) | inconclusive: 20 µM [activator, single point] | –
53 | CCC(C)[C@H](NC(=O)N1CC(=O)Nc2ccccc21)C(=O)N[C@@H](C(=O)O)c1ccccc1 (some centres not stated) | inconclusive: 3.55 µM [activator, partial curve] | –
54 | Cc1ccc(-c2nnc(CSc3nnc(COc4ccccc4)n3-c3ccccc3)o2)cc1 | inconclusive: 20.6 µM [inhibitor, partial curve, poor fit] | –
55 | Cc1ccc(C(=O)CSc2cnc3ccccc3n2)cc1C | inconclusive: 23.1 µM [inhibitor, single point] | –
56 | COc1ccc(CCNC(=O)CN2C(=O)NC(Cc3c[nH]c4ccccc34)C2=O)cc1 (configuration not stated) | inconclusive: 7.08 µM [inhibitor, full curve, poor fit] | –
57 | O=C(Nc1ccc(N2CCCC2)c(Cl)c1)c1ccc([N+](=O)[O-])o1 | inconclusive: 14.1 µM [inhibitor, partial curve, poor fit] | –
58 | O=C(Nc1ccc(F)cc1)C1CCCN(c2ncnc3c2nc2n3CCCCC2)C1 (configuration not stated) | inconclusive: 7.94 µM [inhibitor, partial curve, poor fit] | –
59 | Cc1cccc(CNC(=O)Cc2ccc(NC(=O)N3CCCCc4ccccc43)cc2)c1 | inconclusive: 17.8 µM [inhibitor, partial curve, poor fit] | –
60 | COc1ccc(C2CC(c3cccs3)=NN2c2nc(C)c(C(C)=O)s2)cc1OC (configuration not stated) | inconclusive: 8.91 µM [inhibitor, partial curve, poor fit] | –
61 | CCOc1ccc(-c2cn3c(n2)sc2cc(C(=O)NCCCN(CC)CC)ccc23)cc1 | inconclusive: 39.8 µM [activator, partial curve, poor fit] | –
62 | NS(=O)(=O)c1ccc(NC(=O)CN2CCN(Cc3ccccc3)CC2)cc1 | – | inactive: -0.65%
63 | CCOC(=O)c1ccc(NC(=O)C(C)N(c2ccc(OCC)cc2)S(C)(=O)=O)cc1 (configuration not stated) | – | inactive: 7.59% [at 46.1 µM]
64 | Cc1cc(N2CCN(C)CC2)nc2ccc(NC(=O)c3ccc4c(c3)OCO4)cc12 | active: 16.4 µM | –
65 | O=C(Nc1cc2ccc(O)cc2oc1=O)c1ccc(F)cc1 | inconclusive: 22.4 µM [inhibitor, single point] | –
66 | COc1ccc(/C=C/C(=O)c2cc(F)ccc2OC(=O)c2ccccc2)cc1OC | inconclusive: 2 µM [inhibitor, partial curve, poor fit] | –
67 | Cc1ccc(Cl)c(NC(=O)CCl)c1Cl | inconclusive: 35.5 µM [inhibitor, partial curve, poor fit] | –
68 | Cc1ccc(C(=O)Nc2nc(C)c(C(=O)Nc3ccc4c(c3)CCC4)s2)cc1 | inconclusive: 0.631 µM [inhibitor, full curve, poor fit] | –
69 | Nc1c2c(nc3sc4c(c13)CCCC4)-c1ccccc1CC2 | active: 11.2 µM | –
70 | COc1ccc(C(=O)NC(=S)N2CCN(c3ccc([N+](=O)[O-])cc3)CC2)cc1 | – | inactive: -4.77%
71 | CN(C)c1oc(/C=C/c2ccc(F)cc2)nc1C#N | inconclusive: 6.31 µM [activator, single point] | –
72 | Cc1ccccc1N=CC1=C(O)c2ccccc2C1=O | active: 10 µM | –
